At least one compound was matched to its structure with a doubt left.
System: split kinase domain of tyrosine protein kinase Lyn
Experiment: CISPA sensor, split Lyn kinase domain fused to split firefly luciferase, in HEK293T cells
Assay type: cell-based, human
Conditions: increasing ligand concentration, compared to cells not stimulated, FIG. 3A

In the case of Cc1nc(Nc2ncc(C(=O)Nc3c(C)cccc3Cl)s2)cc(N2CCN(CCO)CC2)n1 [dasatinib], the “firefly luciferase activity (dimerization of split Lyn CISPA sensor)” value is reported as “an increase in firefly luciferase activity is observed”.
